Reference: publication PMC13289029
No constants are given. Whether binding was seen depends on the method and setting. Binding seen in cells or lysates may run through a third protein. A result given as binding can be weak or reduced; the word gives no strength. Sequences can lack the tags named with a protein.

B1: 723-luciC (protein, UniProt Q8DV01 1-893)
chain: MFKKQKRDSFYVQDEKTVLSGLESSKKGLTSTQAKQRLADYGYNELEEDEKRTILAKFIDQFKDLMIIILLVAAALSVITEGMGGLTDAIIILVVVVLNAAFGVYQEGQAEAAIEALKSMSSPHARVRRDGHVTEIDSKELVPGDVVLLEAGDVVPADMRLLEAASLKIEEAALTGESVPVEKSVTVAIASDAGIGDRLNMAYQNSNVTYGRGMGVVTNTGMYTEVGHIAGMLANADETDTPLKQSLDNLSKVLTYVIIIIAIITCLVGIFVRHEEPLEGLMVAVALAVAAIPEGLPAIVTVVLSLGTKTLAKRQSIVRKLPAVETLGSTEIIASDKTGTLTMNQMTVEKVYYNGRLVDANDDIDVNNMALRVMNFANDSKVDANGKLIGDPTETALVQYGFDHNFDIREVLKAELRVAELPFDSDRKLMSTIHKLDGEKYLIAVKGAPDQLLKRITQIEIDGSIRPITEDDKKAILDMNKSLAKQALRVLMIAYKYESEIPKLETAVVENDLIFAGLVGMIDPERPEAAEAVHVAKEAGIRPIMITGDHQDTAEAIAKRLGIIDDDGIDHVFTGAELNELSDEEFQKVFKQYSVYARVSPEHKVRIVKAWQNDGKIVAMTGDGVNDAPSLKTADIGIGMGITGTEVSKGASDMVLADDNFATIIVAVEEGRKVFSNIQKSIQYLLSANMAEVFTIFFATLFGWDVLQPVHLLWINLVTDTLPAIALGVEPAEPGVMTHKPRGRKSSFFSGGVMGAIIYQGILQTLLVLGVYGWAVFFPEHATRTEIHADALTMAFATLGLIQLVHAYNVKSVYQSIFKVGFFKNKTFNWALPTALIIMLATIVIPGFNRFFHVSHLSVTQWCVVVGGSLAMFVIVEIVKAIQRVLGQDQKAI
B2: GapC-luciC (protein, UniProt Q8DVV3 1-337)
chain: MVVKVGINGFGRIGRLAFRRIQNVEGVEVTRINDLTDPNMLAHLLKYDSTQGRFDGNVEVKEGGFEVNGKFVKVSAERDPEQIDWAADGVEIVLEATGFFASKAAAEKHLHANGGAKKVVITAPGGNDIKTIVFNTNHDVLDGTETVISGASCTTNCLAPMAKALHDNFSIKEGLMTTIHAYTGDQMVLDGPHRKGDLRRARAAAANIVPNSTGAAKAIGLVIPELNGKLDGAAQRVPVPTGSVTELVAVLDKKVTVDEVNAAMKAAANESYGYTEDPIVSSDIVGMSFGSLFDATQTKVLDVDGKQLVKVVSWYDNEMSYTSQLVRTLEYFAKIAK

Biological target: DacA-luciN (Streptococcus mutans UA159)
Assay: split reporter; split Renilla luciferase complementation in living S. mutans, mid-log culture in THB, coelenterazine-h, luminescence normalized to OD600; compared with DacA-luciN + luciC negative control

Binder	binding
B1	binds
B2	binds
